{"source": "PubChem BioAssay AID1159578 (Peter MacCallum Cancer Centre, 2015)", "screen": "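Genome-wide hunt for genes controlling movement of lymphatic endothelial cells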 (primary screen)", "cells": "human lymphatic endothelial cells", "knock-down reagent": "siRNA pool against human genes, 40 nM", "time to read-out": "48 h after transfection", "read-out": "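Cells stained with dye and imaged after a scratch; covered wound area and nuclei counted, duplicates averaged, migration set against mock wells and turned into a robust z-score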", "scale": "migration robust z-score: higher = faster migration into the scratch; nuclei per well: higher = more cells in the well", "hit rule": "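Pools averaging fewer than 3300 nuclei are never called; remaining pools count as changed when migration robust z lies outside -2 to 2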", "calls": "active = migration changed; inactive = no migration change, or too few cells", "note": "Here is a random part of about 18,000 deposited reagents. Over the whole deposit, about 1,030 (5.7%) got an active call. 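Inactive calls also include pools with fewer than 3300 nuclei, whose migration was not assessed.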 Raw values vary from plate to plate and are shown uncorrected. Not all columns of the deposit are shown."}
{"gene symbol": "FAM3A", "migration robust z-score": -0.74, "migration class with cell-count check": "migration z between -2 and 2; enough cells", "nuclei per well, duplicate mean": 4388, "outcome": "inactive"}
{"gene symbol": "MARVELD2", "migration robust z-score": -0.16, "migration class with cell-count check": "migration z between -2 and 2; enough cells", "nuclei per well, duplicate mean": 6014, "outcome": "inactive"}
{"gene symbol": "RMND5B", "migration robust z-score": 0.94, "migration class with cell-count check": "migration z between -2 and 2; enough cells", "nuclei per well, duplicate mean": 6342, "outcome": "inactive"}
{"gene symbol": "GPD2", "migration robust z-score": 0.2, "migration class with cell-count check": "migration z between -2 and 2; enough cells", "nuclei per well, duplicate mean": 6581, "outcome": "inactive"}
{"gene symbol": "GNA11", "migration robust z-score": -1.86, "migration class with cell-count check": "migration z between -2 and 2; enough cells", "nuclei per well, duplicate mean": 4173, "outcome": "inactive"}
{"gene symbol": "SLC49A3", "migration robust z-score": 0.99, "migration class with cell-count check": "migration z between -2 and 2; enough cells", "nuclei per well, duplicate mean": 6062, "outcome": "inactive"}
{"gene symbol": "CDK2AP1", "migration robust z-score": -2.1, "migration class with cell-count check": "migration z below -2; enough cells", "nuclei per well, duplicate mean": 5628, "outcome": "active"}
{"gene symbol": "SLC25A44", "migration robust z-score": -0.88, "migration class with cell-count check": "migration z between -2 and 2; enough cells", "nuclei per well, duplicate mean": 4284, "outcome": "inactive"}
{"gene symbol": "CLDND2", "migration robust z-score": -0.79, "migration class with cell-count check": "under 3300 nuclei; migration not judged", "nuclei per well, duplicate mean": 2564, "outcome": "inactive"}
{"gene symbol": "DEFB127", "migration robust z-score": 0.25, "migration class with cell-count check": "migration z between -2 and 2; enough cells", "nuclei per well, duplicate mean": 5799, "outcome": "inactive"}
{"gene symbol": "CTSK", "migration robust z-score": -0.1, "migration class with cell-count check": "migration z between -2 and 2; enough cells", "nuclei per well, duplicate mean": 5472, "outcome": "inactive"}
{"gene symbol": "CPA1", "migration robust z-score": -0.7, "migration class with cell-count check": "migration z between -2 and 2; enough cells", "nuclei per well, duplicate mean": 6569, "outcome": "inactive"}
{"gene symbol": "PML", "migration robust z-score": 1.12, "migration class with cell-count check": "migration z between -2 and 2; enough cells", "nuclei per well, duplicate mean": 6794, "outcome": "inactive"}
{"gene symbol": "NDRG1", "migration robust z-score": -0.88, "migration class with cell-count check": "migration z between -2 and 2; enough cells", "nuclei per well, duplicate mean": 4782, "outcome": "inactive"}

3 entries already listed, arranged by “nuclei per well, duplicate mean”, low to high:
{"gene symbol": "SLC25A44", "migration robust z-score": -0.88, "migration class with cell-count check": "migration z between -2 and 2; enough cells", "nuclei per well, duplicate mean": 4284, "outcome": "inactive"}
{"gene symbol": "CDK2AP1", "migration robust z-score": -2.1, "migration class with cell-count check": "migration z below -2; enough cells", "nuclei per well, duplicate mean": 5628, "outcome": "active"}
{"gene symbol": "SLC49A3", "migration robust z-score": 0.99, "migration class with cell-count check": "migration z between -2 and 2; enough cells", "nuclei per well, duplicate mean": 6062, "outcome": "inactive"}

Additional results:
{"gene symbol": "ASTE1", "migration robust z-score": 1.99, "migration class with cell-count check": "migration z between -2 and 2; enough cells", "nuclei per well, duplicate mean": 6216, "outcome": "inactive"}
{"gene symbol": "WT1-AS", "migration robust z-score": -0.24, "migration class with cell-count check": "migration z between -2 and 2; enough cells", "nuclei per well, duplicate mean": 6254, "outcome": "inactive"}
{"gene symbol": "C5AR1", "migration robust z-score": -2.96, "migration class with cell-count check": "migration z below -2; enough cells", "nuclei per well, duplicate mean": 4164, "outcome": "active"}
{"gene symbol": "ZNF493", "migration robust z-score": 1.43, "migration class with cell-count check": "migration z between -2 and 2; enough cells", "nuclei per well, duplicate mean": 6614, "outcome": "inactive"}
{"gene symbol": "CEP89", "migration robust z-score": 0.3, "migration class with cell-count check": "migration z between -2 and 2; enough cells", "nuclei per well, duplicate mean": 4972, "outcome": "inactive"}
{"gene symbol": "EED", "migration robust z-score": -0.73, "migration class with cell-count check": "migration z between -2 and 2; enough cells", "nuclei per well, duplicate mean": 5159, "outcome": "inactive"}
{"gene symbol": "GHITM", "migration robust z-score": 1.12, "migration class with cell-count check": "migration z between -2 and 2; enough cells", "nuclei per well, duplicate mean": 6288, "outcome": "inactive"}
